Assay results from the supplement of paper PMC3047530.
The list shows a part of the results. Many values rest on one well or one pass, so single values are uncertain.

Tested on: Geomyces destructans
Test: growth inhibition relative to DMSO control; higher = stronger growth inhibition
Settings: 10 µM; 15 °C; incubation time 10 days

**Q.** Which growth inhibition does the source give for `C[C@H](CCC(=O)O)[C@H]1CC[C@H]2[C@@H]3C[C@H](O)[C@@H]4C[C@H](O)CC[C@]4(C)[C@H]3CC[C@]12C` [alpha-HYODEOXYCHOLIC ACID] here?
**A.** Its growth inhibition is -14.6%.

**Q.** `CC(=O)Nc1ccc(OCC(O)CNC(C)C)cc1` (configuration not stated) was tested. Which growth inhibition did it give?
**A.** The growth inhibition was -14.1%.

**Q.** Which growth inhibition does the source give for `CN1[C@@H]2CC[C@H]1C[C@@H](OC(c1ccccc1)c1ccccc1)C2` here?
**A.** Its growth inhibition is 17.9%.

**Q.** For `C[C@@H]1O[C@@H](OC[C@H]2O[C@@H](Oc3c(-c4ccc(O)c(O)c4)oc4cc(O)cc(O)c4c3=O)[C@H](O)[C@@H](O)[C@@H]2O)[C@H](O)[C@H](O)[C@H]1O` [RUTOSIDE  (rutin)], which growth inhibition is on record?
**A.** The growth inhibition was -7.02%.

**Q.** `CCCC(=O)Nc1ccc(OCC(O)CNC(C)C)c(C(C)=O)c1` (configuration not stated) was tested. Which growth inhibition did it give?
**A.** The growth inhibition was -28.7%.

**Q.** With `COc1ccc(Cl)cc1C(=O)NCCc1ccc(S(=O)(=O)NC(=O)NC2CCCCC2)cc1` as the compound, how does the growth inhibition read?
**A.** The growth inhibition was -20.8%.

**Q.** For `CC(C)=CCC1=C(O)C(=O)c2ccccc2C1=O`, which growth inhibition is on record?
**A.** The growth inhibition was -31.4%.

**Q.** How did the growth inhibition turn out when `CCCOc1ccccc1-c1nc2[nH]nnc2c(=O)[nH]1` was run?
**A.** The growth inhibition was -6.7%.

**Q.** How did the growth inhibition turn out when `CN(C(=O)CN(CCO)CC(=O)N(C)C(C)(C)Cc1ccccc1)C(C)(C)Cc1ccccc1` was run?
**A.** The growth inhibition was -4.14%.

**Q.** How did the growth inhibition turn out when `CC1(C)O[C@@H]2C[C@H]3[C@@H]4C[C@H](F)C5=CC(=O)C=C[C@]5(C)[C@@]4(F)[C@@H](O)C[C@]3(C)[C@]2(C(=O)CO)O1` was run?
**A.** The growth inhibition was -4.5%.

**Q.** `CC(C)=CCc1c2c(c3occ(-c4ccc(O)c(O)c4)c(=O)c3c1O)C=CC(C)(C)O2` was tested. Which growth inhibition did it give?
**A.** Its growth inhibition is 0.0912%.

**Q.** Which growth inhibition does the source give for `COc1cc(NS(=O)(=O)c2ccc(N)cc2)ncn1` here?
**A.** The growth inhibition was -12.5%.

**Q.** Which growth inhibition does the source give for `Cc1cc(C)nc(NS(=O)(=O)c2ccc(N)cc2)n1` here?
**A.** The growth inhibition was -1.42%.

**Q.** `NCCC(=O)N[C@@H](Cc1c[nH]cn1)C(=O)O` was tested. Which growth inhibition did it give?
**A.** The growth inhibition was -5.33%.

**Q.** With `COC(=O)c1c(C)c2c(c(C)c1OC)OC(=O)c1c(C)c(Cl)c(OC)c(Cl)c1O2` as the compound, how does the growth inhibition read?
**A.** Its growth inhibition is -3.93%.

**Q.** How did the growth inhibition turn out when `NC[C@H]1O[C@H](O[C@H]2[C@H](O)[C@@H](O[C@H]3O[C@H](CO)[C@@H](O)[C@H](N)[C@H]3O)[C@H](N)C[C@@H]2N)[C@H](N)C[C@@H]1O` was run?
**A.** Its growth inhibition is -17.6%.

**Q.** How did the growth inhibition turn out when `COc1c(Cl)ccc(Cl)c1C(=O)O` was run?
**A.** Its growth inhibition is -5.76%.

**Q.** With `COc1ccc2c(=O)c(-c3ccc(O[C@@H]4O[C@H](CO)[C@@H](O)[C@H](O)[C@H]4O)cc3)coc2c1` as the compound, how does the growth inhibition read?
**A.** The growth inhibition was 4.79%.

**Q.** Which growth inhibition does the source give for `CC(=O)Nc1ccc(OC(=O)c2ccccc2O)cc1` here?
**A.** Its growth inhibition is -9.26%.

**Q.** `COC(=O)C[C@H]1C2(C)CC34OC5(C)O[C@@]6([C@H](OC(C)=O)C(OC(C)=O)[C@]7(C)C(/C(=C(/O)C(C)C)C(=O)O[C@H]7c7ccoc7)[C@@]6(O5)[C@H](OC(C)=O)[C@@]3(O)C2OC(=O)C(C)C)[C@]14C` (some centres not stated) was tested. Which growth inhibition did it give?
**A.** The growth inhibition was -16.6%.

**Q.** Which growth inhibition does the source give for `COc1cc(OC)c2ccc(=O)oc2c1` here?
**A.** The growth inhibition was -28.2%.

**Q.** Which growth inhibition does the source give for `O=C(CCBr)N1CCN(C(=O)CCBr)CC1` here?
**A.** The growth inhibition was -8.15%.

**Q.** `CCCCC1C(=O)N(c2ccccc2)N(c2ccc(O)cc2)C1=O` (configuration not stated) was tested. Which growth inhibition did it give?
**A.** The growth inhibition was -29.2%.

**Q.** `CC(=O)O[C@@H]1CC(=O)[C@@]2(C)C(CC(=O)[C@]3(C)C2CC[C@@]2(C)[C@H](c4ccoc4)OC(=O)C4OC423)C1(C)C` (some centres not stated) was tested. Which growth inhibition did it give?
**A.** The growth inhibition was -5.07%.

**Q.** With `Cc1cc(=O)c2c(O)c3c(cc2o1)OCC(C)CC3` (configuration not stated) as the compound, how does the growth inhibition read?
**A.** The growth inhibition was 2.83%.

**Q.** With `CCN(CC)CCOCCOC(=O)C1(c2ccccc2)CCCC1` as the compound, how does the growth inhibition read?
**A.** Its growth inhibition is -6.23%.

**Q.** `CC(C)C[C@@H](NC(=O)OCC1c2ccccc2-c2ccccc21)C(=O)O` was tested. Which growth inhibition did it give?
**A.** The growth inhibition was -10%.

**Q.** With `Cc1cc(C(C)(C)C)cc(C)c1CC1=NCCN1` as the compound, how does the growth inhibition read?
**A.** The growth inhibition was -26.2%.

**Q.** `CCN(CCCCOC(=O)c1ccc(OC)c(OC)c1)C(C)Cc1ccc(OC)cc1` (configuration not stated) was tested. Which growth inhibition did it give?
**A.** Its growth inhibition is -41%.

**Q.** With `O=C(Oc1cc(O)cc2c1C[C@@H](OC(=O)c1cc(O)c(O)c(O)c1)[C@@H](c1cc(O)c(O)c(O)c1)O2)c1cc(O)c(O)c(O)c1` as the compound, how does the growth inhibition read?
**A.** Its growth inhibition is -22.3%.

**Q.** For `COc1ccc(-c2coc3c(OC)c(OC)cc(OC)c3c2=O)cc1`, which growth inhibition is on record?
**A.** The growth inhibition was 1.69%.

**Q.** With `CCCCCCOc1ccccc1C(N)=O` as the compound, how does the growth inhibition read?
**A.** Its growth inhibition is -3.79%.

**Q.** `NC[C@H](O)c1ccc(O)c(O)c1` was tested. Which growth inhibition did it give?
**A.** The growth inhibition was -30.1%.

**Q.** Which growth inhibition does the source give for `CCN(CC)CCNC(=O)c1ccc(N)cc1` here?
**A.** The growth inhibition was -22.2%.

**Q.** For `Cc1ccc(-c2cc(C(F)(F)F)nn2-c2ccc(S(N)(=O)=O)cc2)cc1`, which growth inhibition is on record?
**A.** Its growth inhibition is 1.7%.

**Q.** `COC(=O)C[C@H]1C(C)(C)C2(Cl)O[C@@]34CC2C(=O)[C@]1(C)C3CC[C@]1(C)C4=CC(=O)O[C@H]1c1ccoc1` (stereo partly drawn) [3-CHLORO-8beta-HYDROXYCARAPIN, 3,8-HEMIACETAL] was tested. Which growth inhibition did it give?
**A.** Its growth inhibition is -8.86%.

**Q.** How did the growth inhibition turn out when `CC(C)[N+]1(C)[C@@H]2CC[C@H]1C[C@@H](OC(=O)C(CO)c1ccccc1)C2` (some centres not stated) was run?
**A.** Its growth inhibition is 1.31%.

**Q.** How did the growth inhibition turn out when `COc1cc2ccc(=O)oc2c(O)c1O` was run?
**A.** Its growth inhibition is -14.2%.

**Q.** `O=c1c(-c2ccc3c(c2)OCO3)coc2cc(O)ccc12` was tested. Which growth inhibition did it give?
**A.** The growth inhibition was 3.82%.

**Q.** How did the growth inhibition turn out when `Nc1ccc(S(=O)(=O)Nc2nccs2)cc1` was run?
**A.** The growth inhibition was -0.218%.

**Q.** How did the growth inhibition turn out when `COC(=O)C(O)c1ccccc1` (configuration not stated) was run?
**A.** The growth inhibition was 84.2%.

**Q.** How did the growth inhibition turn out when `COc1cc2c(cc1/C=C/C(=O)c1cc(OC)c(OC)cc1OC)OCO2` was run?
**A.** Its growth inhibition is -4.09%.

**Q.** How did the growth inhibition turn out when `CCOC(=O)C(Cc1ccc(O)cc1)NC(C)=O` (configuration not stated) was run?
**A.** Its growth inhibition is -11.1%.

**Q.** `CC[C@H]1OC(=O)[C@H](C)[C@@H](O[C@H]2C[C@@](C)(OC)[C@@H](O)[C@H](C)O2)[C@H](C)[C@@H](O[C@@H]2O[C@H](C)C[C@H](N(C)C)[C@H]2O)[C@](C)(O)C[C@@H](C)CN(C)[C@H](C)[C@@H](O)[C@]1(C)O` was tested. Which growth inhibition did it give?
**A.** The growth inhibition was -35.3%.

**Q.** `C[C@@H]1CCC[C@H](C)N1NC(=O)c1ccc(Cl)c(S(N)(=O)=O)c1` was tested. Which growth inhibition did it give?
**A.** Its growth inhibition is 1.28%.

**Q.** Which growth inhibition does the source give for `O=C(/C=C/c1ccc(O)c(O)c1)O[C@H](Cc1ccc(O)c(O)c1)C(=O)O` here?
**A.** Its growth inhibition is -12.2%.

**Q.** How did the growth inhibition turn out when `COc1cccc2c1CCC1CC(=O)CC[C@]21C` (some centres not stated) was run?
**A.** Its growth inhibition is -3.17%.

**Q.** For `C=C1C2CCC3(C)C(c4ccoc4)OC(=O)CC13OC1CC(=O)C(C)(C)C(CC(=O)OC)C12C` (configuration not stated), which growth inhibition is on record?
**A.** The growth inhibition was 1.25%.

**Q.** With `O=C(O)c1c2ccccc2cc2ccccc12` as the compound, how does the growth inhibition read?
**A.** Its growth inhibition is -7.65%.

**Q.** `CO/N=C(\C(=O)N[C@@H]1C(=O)N2C(C(=O)O)=C(COC(C)=O)CS[C@H]12)c1csc(N)n1` was tested. Which growth inhibition did it give?
**A.** Its growth inhibition is 5.24%.

**Q.** For `O=C(O)[C@@H]1[C@H]2C[C@H]3c4[nH]c5ccccc5c4CCN3C[C@@H]2CC[C@@H]1O`, which growth inhibition is on record?
**A.** Its growth inhibition is -4.71%.

**Q.** How did the growth inhibition turn out when `COc1cc(CNC(=O)CCCC/C=C/C(C)C)ccc1O` was run?
**A.** The growth inhibition was -1.95%.

**Q.** With `CC(=O)O[C@@H]1CC2C(C)(C)CCC[C@]2(C)C2CC[C@]3(C)C(=CC(=O)O[C@H]3c3ccoc3)[C@@]21C` (some centres not stated) as the compound, how does the growth inhibition read?
**A.** The growth inhibition was 2.83%.

**Q.** Which growth inhibition does the source give for `CC(=O)Nc1c(I)cc(I)c(C(=O)O)c1I` here?
**A.** The growth inhibition was -17.8%.

**Q.** `CC(=O)O[C@]1(C)CC[C@@]23C[C@H]1C(C)(C)[C@@H]2CC[C@H]3C` was tested. Which growth inhibition did it give?
**A.** The growth inhibition was -1.69%.

**Q.** For `Cc1cc2cc3c(C)cc(=O)oc3c(C)c2o1`, which growth inhibition is on record?
**A.** The growth inhibition was -29.5%.

**Q.** For `CC(=O)Nc1nnc(S(N)(=O)=O)s1`, which growth inhibition is on record?
**A.** The growth inhibition was -34%.
